# Source: US7462639B2, “Aminopyrazole derivatives” (Hoffmann-La Roche Inc., priority 2005, dated 2008)
# Some results were stated once for a whole list of compounds, not compound by compound. Some compounds share one range, which may span the group rather than tell each member.
# Key:
# [1] = molecular target: T1, Aurora A kinase (Homo sapiens, UniProt O14965); test: IC50 determination for inhibitors of Aurora A (ELISA-type kinase assay); format: biochemical; details: GST-Histone H3 substrate, mutant Aurora A kinase, 30 μM ATP, 40 minutes, read-out: IC50 Aurora A kinase inhibition
# T1 sequence (O14965 1-403): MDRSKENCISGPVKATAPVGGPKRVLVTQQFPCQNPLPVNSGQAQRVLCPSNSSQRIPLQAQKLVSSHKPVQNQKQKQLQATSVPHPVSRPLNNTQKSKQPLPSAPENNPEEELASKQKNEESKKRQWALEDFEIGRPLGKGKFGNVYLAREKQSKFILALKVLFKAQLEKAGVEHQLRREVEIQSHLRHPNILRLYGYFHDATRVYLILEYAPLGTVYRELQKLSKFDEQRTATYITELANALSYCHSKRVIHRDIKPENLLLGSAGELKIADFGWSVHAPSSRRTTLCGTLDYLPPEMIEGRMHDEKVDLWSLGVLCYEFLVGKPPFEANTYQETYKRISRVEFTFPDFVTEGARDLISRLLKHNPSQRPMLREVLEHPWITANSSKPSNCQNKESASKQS
# Experimental: Aurora A is a serine threonine kinase involved in spindle assembly and chromosome segregation. The assay is a typically ELISA-type assay where substrate (GST-Histone H3) is coupled to the assay-plate and is phosphorylated by the kinase. Phosphorylation is detected by a mouse anti-Phosphopeptid mAb and an HRP-labeled anti-mouse pAb. The assay is validated for IC50-determination.
# Kinase activities were measured by Enzyme-Linked Immunosorbent Assay (ELISA): Maxisorp 384-well plates (Nunc) were coated with recombinant fusion protein comprising residues 1-15 of HistoneH3 fused to the N-terminus of Glutathione-S-Transferase. Plates were then blocked with a solution of 1 mg/mL I-block (a highly purified form of casein, Tropix cat. no. T2015) in phosphate-buffered saline. Kinase reactions were carried out in the wells of the ELISA plate by combining an appropriate amount of mutant Aurora A kinase with test compound and 30 μM ATP. […] After washing, substrate phosphorylation was detected by addition of anti-phospho-Histone H3 (Ser 10) 6G3 mAb (Cell Signaling cat. no. 9706) and sheep anti-mouse pAb-HRP (Amersham cat# NA931V), followed by colorimetric development with TMB (3,3′,5,5′-tetramethylbenzidine from Kirkegaard & Perry Laboratories). After readout of the adsorbance, IC50 values were calculated using a non-linear curve fit (XLfit software (ID Business Solution Ltd., Guilford, Surrey, UK)).
# [2] = test system: HCT 116 cells; test: Viability assay in HCT 116 cells (CellTiter-Glo); format: cell-based; details: HCT 116 human colon carcinoma cells, 5 days incubation, ATP luminescence readout
# Experimental: A viability assay was performed using the CellTiter-Glo® Luminescent Cell Viability Assay (see Promega Corporation's Technical Bulletin No. 288, pp. 1-11 [revised 2/04] which is hereby incorporated by reference in its entirety). This assay is a homogeneous method of determining the number of viable cells in culture based on quantitation of the ATP present, an indicator of metabolically active cells. The assay is designed for use with multiwell formats, making it ideal for automated high-throughput screening (HTS), cell proliferation and cytotoxicity assays. The homogeneous assay procedure involves adding a single reagent (containing luciferase, luciferan substrate, and buffer) directly to cells cultured in serum-supplemented medium. Cell washing, removal of medium and multiple pipetting steps are not required. […]
# HCT 116 cells (human colon carcinoma, ATCC-No. CCl-247) were cultivated in RPMI 1640 medium with GlutaMAX™ I (cell culture media that contains L-Alanyl-L-Glutamine [a stabilized a form/source of L-Glutamine] from Invitrogen, Cat-No. 61870-010), 2.5% Fetal Calf Serum (FCS, Sigma Cat-No. F4135 (FBS)); 100 Units/ml penicillin/100 μg/ml streptomycin (=Pen/Strep from Invitrogen Cat. No. 15140). […] After 45 minutes the luminescent signal was measured in Victor 2, (scanning multiwell spectrophotometer, Wallac). […]
smiles,measurement,setting,value
"CCN1C(=O)C(C)(C)c2cc3[nH]c(-c4n[nH]cc4NC(=O)Oc4ccccc4)nc3cc21 [Example E-7, [3-(5-Ethyl-7,7-dimethyl-6-oxo-1,5,6,7-tetrahydro-imidazo[4,5-f]indol-2-yl)-1H-pyrazol-4-yl]-carbamic acid phenyl ester]",IC50,[1],1 to 500 nM
same,IC50,[2],1 to 1500 nM
